Experimental data reported in paper PMC3668578.
No constants are given. Whether binding was seen depends on the method and setting.

Experiments:
[1] = molecular target: PatF from Prochloron didemni (native) (Prochloron didemni) (UniProt Q52QJ2); assay: SEC; Superdex 75 gel filtration in 150 mM NaCl, 10 mM HEPES pH 7.4, 1 mM TCEP, 10% glycerol; self-association of purified PatF; both purified
[2] = molecular target: L-Selenomethionine-labelled (SeMet) PatF from Prochloron didemni (Prochloron didemni) (UniProt Q52QJ2); assay: as above

Binder | binding [1] | binding [2]
PatF from Prochloron didemni (native) (protein, UniProt Q52QJ2 2-320) DLIDRLQNNQRKDRRLQFVRTHQEAFDVKPTFPLPLFEEAILEIEGSCSVESSCQVEGDRLQGGRYEVCNNQGTTWPESLTHAFKLLDKIDSQLGVRINRDSFDRFAAAHVNSRKIINNTIGVHLGSKLEDSSVMLYIHIKPEEDTEELARTALVLDGGRYSDELTRVLLRDTMVIGFELFFDGRSRVDLGPCAPGKSGTLKMKGKHLEQYTQKNLSRKVNSIFREGYLFGAFFSKTRVEPILFFYHSIIKDLPKYFTFNSLGDKIYNFCQSQGCITDVAIAVTETELEKSRLENFCFYYDQWDECKPSSDYDTERHLHRS | no binding | –
L-Selenomethionine-labelled (SeMet) PatF from Prochloron didemni (protein, UniProt Q52QJ2 2-320, three selenomethionine residues (confirmed by mass spectrometry)) DLIDRLQNNQRKDRRLQFVRTHQEAFDVKPTFPLPLFEEAILEIEGSCSVESSCQVEGDRLQGGRYEVCNNQGTTWPESLTHAFKLLDKIDSQLGVRINRDSFDRFAAAHVNSRKIINNTIGVHLGSKLEDSSVMLYIHIKPEEDTEELARTALVLDGGRYSDELTRVLLRDTMVIGFELFFDGRSRVDLGPCAPGKSGTLKMKGKHLEQYTQKNLSRKVNSIFREGYLFGAFFSKTRVEPILFFYHSIIKDLPKYFTFNSLGDKIYNFCQSQGCITDVAIAVTETELEKSRLENFCFYYDQWDECKPSSDYDTERHLHRS | – | no binding
